Assay results: PMC12741935 (Alzheimer's & Dementia, 2025)
This continues a long series; more values of the same kind are listed elsewhere.

Test system: brain proteome
Assay: Brain proteomics (DIA LC-MS/MS) after chronic NVS-PAK1-1 100 mg/kg BID PO vs vehicle in 5xFAD mice
Format: in vivo
Method: A total of 91 brain samples were prepared from mice in this study and analyzed by mass spectrometry proteomics. One third of the mixed‐chopped left hemisphere tissue was homogenized in 8 M urea lysis buffer (8 M urea, 10 mM Tris, 100 mM NaH2PO4, pH 8.5) with HALT protease and phosphatase inhibitor cocktail (Thermo Fisher) and sonicated for three cycles consisting of 5 seconds of active sonication at 30% amplitude, followed by 15 seconds on ice. Samples were then centrifuged for 5 minutes at 15,000 g and the supernatant was transferred to a new tube. Protein concentration was determined by bicinchoninic acid (BCA) assay (Pierce). For protein digestion, 200 µg of each sample was aliquoted and volumes normalized with additional lysis buffer. Samples were reduced with 5 mM DTT at room temperature for 30 minutes, followed by 10 mM iodoacetamide (IAA) alkylation in the dark for another 30 minutes. Lysyl endopeptidase (Wako) at 1:25 (w/w) was added, and digestion allowed to proceed overnight. Samples were then 7‐fold diluted with 50 mM ammonium bicarbonate. Trypsin (Promega) was then added at 1:25 (w/w) and digestion proceeded overnight. The peptide solutions were acidified to a final concentration of 1% (vol/vol) FA and 0.1% (vol/vol) TFA and desalted with a 10 mg HLB column (Oasis). Each HLB column was first rinsed with 1 mL of methanol, washed with 1 mL 50% (vol/vol) acetonitrile (ACN), and equilibrated with 2 × 1 mL 0.1% (vol/vol) TFA. The samples were then loaded onto the column and washed with 2 × 1 mL 0.1% (vol/vol) TFA. Elution was performed with 0.5 mL 50% (vol/vol) ACN. Samples were split into 50 µL and 400 µL aliquots. Residuals from all samples were combined to create a global internal standard pool.
Samples were resuspended in an equal volume of loading buffer (0.1% FA, 0.03% TFA, 1% ACN) and analyzed by LC‐MS/MS. Peptide eluents (1 µg) were separated on a Water's CSH (15 cm × 150 µM internal diameter [ID] with 1.7 µm CSH resin) by a Dionex Ultimate 3000 RSLCnano (Thermo Fisher). Buffer A was water with 0.1% (vol/vol) formic acid, and buffer B was 80% (vol/vol) acetonitrile in water with 0.1% (vol/vol) FA. Elution was performed over a 30 minute gradient. The gradient was from 1% to 99% solvent B. Peptides were monitored on an Orbitrap Fusion Lumos mass spectrometer (Thermo Fisher). Each cycle consisted of one full scan (MS1) performed with an m/z range of 380 to 985 at a 60,000 resolution at standard settings and 30 data independent scans (DIA) in 1.5 seconds. The higher energy collision‐induced dissociation (HCD) tandem scans were collected at 30% collision energy with an isolation of 10 m/z, a resolution of 15,000, an AGC setting of 200% normalized AGC target, and a maximum injection time set to 40 ms.
Raw data files were converted to mzML format for downstream processing using ThermoRawFilerParser v.1.4.4.[30] The data were processed using Data‐Independent Acquisition by Neural Network (DIA‐NN) v.1.9.1.[31] A spectral library was generated using all canonical mouse proteins from UniProt and SwissProt (accessed September 24, 2024) and contaminants from the Common Repository of Adventitious Proteins (cRAP) database [https://www.thegpm.org/crap/]; these contaminant proteins were excluded from normalization and downstream analysis. DIA‐NN was run using parameters specified as follows: precursor charge was set from 1 to 4 and precursor m/z was set from 200 to 5000. Enzyme digestion was set to strict trypsin with 1 allowed missed cleavage, peptide length was set from 7 to 50, and peptide m/z was set from 150 to 3000. The maximum number of variable modifications was set to 3 and methionine oxidation was allowed as a variable modification. Cysteine carbamidomethylation was allowed as a fixed modification. MS1 and MS2 mass accuracy (in ppm) were set using autodetect and the scan window was set using autodetect. The false discovery rate (FDR) threshold was set to 1%. […]

CC(C)NC(=O)N1CC[C@H](NC2=Nc3cc(F)ccc3N(CC(F)F)c3ccc(Cl)cc32)C1 [NVS‐PAK1‐1, (S)‐3‐([2‐chloro‐5‐(2,2‐difluoroethyl)‐8‐fluoro‐5H‐dibenzo[b,e][1,4]diazepin‐11‐yl]amino)‐N‐isopropylpyrrolidine‐1‐carboxamide]
logFC_NVS.PAK1.1_vs_vehicle (Aak1, Young M 5xFAD brain): 0.04937
logFC_NVS.PAK1.1_vs_vehicle (Agpat1, Aged M 5xFAD brain): 0.1055
logFC_NVS.PAK1.1_vs_vehicle (Arhgdib, Young M 5xFAD brain): -0.1952
logFC_NVS.PAK1.1_vs_vehicle (Clu, Young F 5xFAD brain): -0.2122
logFC_NVS.PAK1.1_vs_vehicle (Commd10, Young F 5xFAD brain): -0.2183
logFC_NVS.PAK1.1_vs_vehicle (Coq3, Young F 5xFAD brain): 0.2716
logFC_NVS.PAK1.1_vs_vehicle (Ddb1, Young F 5xFAD brain): -0.05262
logFC_NVS.PAK1.1_vs_vehicle (Eef1g, Young F 5xFAD brain): -0.04894
logFC_NVS.PAK1.1_vs_vehicle (Faim2, Aged M 5xFAD brain): -0.292
logFC_NVS.PAK1.1_vs_vehicle (Fxyd1, Young F 5xFAD brain): -0.1469
logFC_NVS.PAK1.1_vs_vehicle (Idh3b, Young F 5xFAD brain): 0.04787
logFC_NVS.PAK1.1_vs_vehicle (Lnpep, Young F 5xFAD brain): -0.2014
logFC_NVS.PAK1.1_vs_vehicle (Ndufs1.1, Young F 5xFAD brain): 0.05722
logFC_NVS.PAK1.1_vs_vehicle (Ndufs7, Young F 5xFAD brain): 0.06237
logFC_NVS.PAK1.1_vs_vehicle (Nop56, Young F 5xFAD brain): -0.0818
logFC_NVS.PAK1.1_vs_vehicle (Pkm, Young M 5xFAD brain): -0.07982
logFC_NVS.PAK1.1_vs_vehicle (Ppia, Aged F 5xFAD brain): -0.04905
logFC_NVS.PAK1.1_vs_vehicle (Ppm1h, Young M 5xFAD brain): 0.08363
logFC_NVS.PAK1.1_vs_vehicle (Rbbp4, Young F 5xFAD brain): -0.1313
logFC_NVS.PAK1.1_vs_vehicle (Septin8, Young M 5xFAD brain): -0.04435
logFC_NVS.PAK1.1_vs_vehicle (Trpv2, Aged F 5xFAD brain): 0.1543
logFC_NVS.PAK1.1_vs_vehicle (Zc3hc1, Aged M 5xFAD brain): -0.2342
